These results are taken from doi:10.1101/2022.06.30.498164.

Protein sequences, listed by entry. Tags and fused reporters are not part of them.
UniProt Q9VWE6: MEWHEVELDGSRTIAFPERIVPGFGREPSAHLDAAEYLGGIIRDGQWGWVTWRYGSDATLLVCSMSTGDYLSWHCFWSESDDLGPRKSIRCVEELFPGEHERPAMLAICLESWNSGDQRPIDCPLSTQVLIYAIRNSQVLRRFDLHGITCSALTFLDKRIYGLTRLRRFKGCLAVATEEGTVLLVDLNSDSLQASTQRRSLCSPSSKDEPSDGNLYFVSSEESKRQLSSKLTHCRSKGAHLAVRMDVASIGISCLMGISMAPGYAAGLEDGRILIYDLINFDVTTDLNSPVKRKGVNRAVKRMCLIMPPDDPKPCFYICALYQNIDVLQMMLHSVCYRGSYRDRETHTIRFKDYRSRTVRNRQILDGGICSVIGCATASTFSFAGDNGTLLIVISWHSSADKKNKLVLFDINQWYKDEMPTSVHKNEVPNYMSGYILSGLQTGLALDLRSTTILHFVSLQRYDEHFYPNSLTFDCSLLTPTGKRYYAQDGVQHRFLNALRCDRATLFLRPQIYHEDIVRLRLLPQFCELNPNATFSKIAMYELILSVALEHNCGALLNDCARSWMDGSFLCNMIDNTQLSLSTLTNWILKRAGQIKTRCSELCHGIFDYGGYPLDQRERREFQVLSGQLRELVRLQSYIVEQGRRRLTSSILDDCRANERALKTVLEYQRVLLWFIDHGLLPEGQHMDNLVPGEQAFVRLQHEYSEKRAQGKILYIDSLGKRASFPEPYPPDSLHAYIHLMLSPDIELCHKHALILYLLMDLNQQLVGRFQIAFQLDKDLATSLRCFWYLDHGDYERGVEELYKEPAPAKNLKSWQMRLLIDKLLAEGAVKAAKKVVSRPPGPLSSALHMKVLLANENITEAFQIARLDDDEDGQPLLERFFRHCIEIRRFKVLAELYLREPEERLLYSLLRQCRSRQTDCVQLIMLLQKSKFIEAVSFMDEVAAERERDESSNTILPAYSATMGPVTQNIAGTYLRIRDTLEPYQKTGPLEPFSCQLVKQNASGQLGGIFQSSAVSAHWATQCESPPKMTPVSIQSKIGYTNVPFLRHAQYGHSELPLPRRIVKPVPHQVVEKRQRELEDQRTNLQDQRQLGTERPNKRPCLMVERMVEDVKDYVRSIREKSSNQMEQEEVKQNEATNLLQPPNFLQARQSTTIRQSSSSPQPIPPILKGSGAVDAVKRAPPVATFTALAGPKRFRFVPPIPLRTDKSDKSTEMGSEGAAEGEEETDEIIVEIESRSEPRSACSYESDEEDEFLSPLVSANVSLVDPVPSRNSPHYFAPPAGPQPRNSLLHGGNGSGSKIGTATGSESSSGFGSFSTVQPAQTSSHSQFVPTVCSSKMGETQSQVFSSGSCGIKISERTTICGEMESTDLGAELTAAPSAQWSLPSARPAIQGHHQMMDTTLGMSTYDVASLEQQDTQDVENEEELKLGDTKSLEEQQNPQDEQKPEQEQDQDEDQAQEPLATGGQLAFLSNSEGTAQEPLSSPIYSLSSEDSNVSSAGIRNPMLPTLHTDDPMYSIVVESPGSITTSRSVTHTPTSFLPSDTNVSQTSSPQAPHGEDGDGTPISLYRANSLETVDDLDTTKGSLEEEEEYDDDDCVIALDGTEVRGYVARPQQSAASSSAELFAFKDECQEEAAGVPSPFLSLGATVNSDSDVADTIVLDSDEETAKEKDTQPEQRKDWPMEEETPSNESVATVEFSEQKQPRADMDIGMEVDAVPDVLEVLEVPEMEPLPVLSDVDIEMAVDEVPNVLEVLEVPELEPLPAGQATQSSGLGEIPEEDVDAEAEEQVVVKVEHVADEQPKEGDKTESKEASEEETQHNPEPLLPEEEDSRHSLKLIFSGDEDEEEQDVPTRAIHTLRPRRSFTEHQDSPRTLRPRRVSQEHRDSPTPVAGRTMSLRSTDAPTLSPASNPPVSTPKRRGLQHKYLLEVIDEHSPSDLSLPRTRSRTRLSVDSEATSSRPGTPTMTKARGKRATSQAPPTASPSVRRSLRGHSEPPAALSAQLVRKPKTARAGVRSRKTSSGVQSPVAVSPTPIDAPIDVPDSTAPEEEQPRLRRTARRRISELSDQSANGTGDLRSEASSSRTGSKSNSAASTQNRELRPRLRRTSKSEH

Results are given in words; binding and its absence hold for the method and conditions named. Binding seen in cells or lysates may run through a third protein. These calls come from enrichment with a bait or labelling near it, and not all partners need be listed. For some assays here: Where a sequence is shown, tags or fusion partners need not be part of it.

Test [1] has as its target T1, Distal antenna (Dan), endogenous (Drosophila melanogaster (endogenous in embryos)) (UniProt Q9VBW6).
T1 sequence: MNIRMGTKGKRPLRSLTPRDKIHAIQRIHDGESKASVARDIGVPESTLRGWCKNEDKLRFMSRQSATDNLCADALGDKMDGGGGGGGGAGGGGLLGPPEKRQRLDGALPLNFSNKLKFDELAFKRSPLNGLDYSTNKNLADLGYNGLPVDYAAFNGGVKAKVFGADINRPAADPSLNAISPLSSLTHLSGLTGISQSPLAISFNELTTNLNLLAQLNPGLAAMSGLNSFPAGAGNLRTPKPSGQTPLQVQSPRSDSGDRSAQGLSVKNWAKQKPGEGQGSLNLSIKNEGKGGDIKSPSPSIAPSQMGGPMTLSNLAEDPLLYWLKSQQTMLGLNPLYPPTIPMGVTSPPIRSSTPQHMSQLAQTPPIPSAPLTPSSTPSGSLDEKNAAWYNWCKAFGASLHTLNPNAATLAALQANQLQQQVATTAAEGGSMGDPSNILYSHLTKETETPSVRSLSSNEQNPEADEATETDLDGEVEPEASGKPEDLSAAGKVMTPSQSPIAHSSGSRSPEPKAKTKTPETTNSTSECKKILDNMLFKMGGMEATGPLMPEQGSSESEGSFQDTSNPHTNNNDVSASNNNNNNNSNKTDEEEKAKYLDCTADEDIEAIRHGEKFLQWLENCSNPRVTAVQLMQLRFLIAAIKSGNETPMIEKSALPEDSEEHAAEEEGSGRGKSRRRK
The test can be described thus: affinity purification with mass spectrometry.

In test [2] the target is T2, myc-tagged Distal antenna (Dan) (Drosophila melanogaster) (UniProt Q9VBW6).
T2 sequence: T1 sequence
The test can be described thus: affinity purification with mass spectrometry.

Turning to Elys (from UniProt Q9VWE6 1-2111), the binding result in test [1] and in test [2] was “binds” each time.
